The term AC50 denotes the midpoint of the concentration-response curve, whichever way the signal moves.

The list shows a part of the results. Shown are side measurements of this screen, not its main read-out; they come without a call. Compounds called inactive in the main read-out are mostly missing here. The note in brackets gives the kind of curve behind each potency; many fits are weak.

A short description of the experiment: qHTS Assay to Find Inhibitors of Chronic Active B-Cell Receptor Signaling. The settings on record: ABC-DLBCL IkBa-CBG/CBR reporter, luminescence ratio (green luciferase fused to IkBa over red control in TMD8 lymphoma cells), 4 h. In outline: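 TMD8 human ABC-DLBCL cells with doxycycline-inducible IκBα–green luciferase fusion and unfused red luciferase, in 0.5% FBS medium; compounds up to 46 uM, 4 h at 37C. Green/red luminescence ratio, filter-overlap corrected, fitted to concentration-response curves.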
(In general: In qHTS, concentration-response curves come from the screen itself.)

[1] abbreviates: measured here: CBR red luminescence, cell number.
Setting [2] is: measured here: IkBa-CBG green luminescence.

As for `O=C(CSc1nnc2c(n1)[nH]c1ccccc12)Nc1nncs1`, the AC50 under setting [1] is 35.5 µM [falling, single point].

For the compound `Cc1c(C(=O)Nc2nc3ccccc3[nH]2)oc2ccccc12`, the AC50 by setting is: under setting [1], 9.2 µM [falling, partial curve]; under setting [2], 20.6 µM [falling, partial curve, poor fit]. Regarding `O=C(Nc1ccc(N2CCN(C(=O)c3ccccc3F)CC2)cc1)c1cncc(Br)c1`, the AC50 under setting [1] is 10 µM [falling, partial curve, poor fit]. In the case of `Cc1cc(=O)oc2c(C)c(OC(C)C(=O)NCCCn3ccnc3)ccc12` (stereo not given), the AC50 under setting [1] was 3.16 µM [falling, single point]. Turning to `Cc1ccc(C(C(=O)NC2CCCC2)N(C(=O)Cc2cccs2)c2ccc(C)c(C)c2)o1` (stereo not given), the AC50 under setting [1] was 9.2 µM [falling, single point]. The same measure, in the same setting: under `COc1ccc2cc(CN(C(=O)Nc3ccccc3OC)C3CCCC3)c(=O)[nH]c2c1` stands 7.08 µM [falling, full curve]; under `C=CCc1cccc2cc(-c3nc4ccc(C(=O)O)cc4[nH]3)c(=O)oc12`, 0.501 µM [falling, full curve, poor fit]. The same measure, in the same setting: under `O=C(Nc1ccccc1Br)c1cc(S(=O)(=O)NC2CCCCC2)ccc1F` stands 35.5 µM [falling, single point]; under `Cc1nnc(NC(=O)CSC2=NN3CCCC(=O)N=C3S2)s1`, 25.1 µM [rising, single point]; under `N#Cc1cc2c(nc1SCC(=O)Nc1nccs1)CCCCC2`, 0.184 µM [falling, full curve, poor fit]. On the same count and under the same terms, then `CCCc1nc2ccccc2c(=O)n1CCc1ccccc1`, with 25.1 µM [falling, single point]; and `Cc1ccsc1C(=O)NCC(=O)OCc1ccccc1`, with 22.4 µM [falling, partial curve, poor fit]; and `C/C(=N\N=C(N)N)c1ccc(Cl)cc1Cl`, with 35.5 µM [falling, single point].

Regarding `Cc1ccc(-n2c(-c3c(-c4ccccc4)noc3C)n[nH]c2=S)cc1`, the AC50 under setting [1] was 6.51 µM [rising, single point]. The same measure, in the same setting: then `CN(C)/C=C/C(=O)Oc1ccc(Cl)cc1Cl`, with 22.4 µM [rising, single point]. As to `CN(CC#CC1(O)c2ccccc2-c2ccccc21)Cc1ccccc1`, under setting [1], the AC50 is 2.06 µM [rising, full curve, poor fit]. Regarding `CN(C)CCCN(C(=O)c1ccc(S(=O)(=O)N2CCc3ccccc3C2)cc1)c1nc2ccc(F)cc2s1`, the AC50 under setting [1] is 3.16 µM [falling, partial curve].

For the compound `Cc1cnc(NC(=O)COc2ccccc2)s1`, the AC50 under setting [1] was 12.6 µM [falling, partial curve]. On the same count and under the same terms, then `C=CCn1c(=O)c(C(=O)Nc2ccccc2O)c(O)c2ccccc21`, with 5.01 µM [falling, full curve].

Consider `C=CCNc1nc(Nc2ccc(OC)cc2)nc(OCC)n1`, for which, under setting [1], the AC50 was 1.16 µM [rising, partial curve].

As for `COc1cc(/C=N/NC(=O)c2[nH]nc3c2CCc2ccccc2-3)ccc1O`, the AC50 under setting [2] is 29.1 µM [falling, single point]. Take `CCOC(=O)c1c(C)oc2c1cc(O)c1ccccc12`: the AC50 under setting [1] is 6.31 µM [rising, partial curve]. With `CSCCC(NC(=O)c1cc(S(=O)(=O)N2CCOCC2)ccc1F)c1nc2ccccc2[nH]1` (stereo not given), under setting [1], the AC50 was 5.8 µM [falling, partial curve, poor fit]. `O=C(Cc1cccs1)Nc1cccc(-c2nc3ccccc3[nH]2)c1`: the AC50 under setting [1] is 32.6 µM [falling, single point]. Still for that read-out and setting: then `COc1cc(NC(=O)CN2CCN(S(=O)(=O)/C=C/c3ccccc3)CC2)cc(OC)c1OC`, with 29.1 µM [falling, partial curve, poor fit]; and `COc1ccccc1S(=O)(=O)Cc1ccc(C(=O)N2CCN(c3ccccc3)CC2)o1`, with 3.16 µM [rising, single point]. The same measure, in the same setting: then `COc1ccc(/C=N/n2cc(-c3ccccc3)nc2N)cc1`, with 7.31 µM [falling, partial curve]. Turning to `O=Cc1ccc(OCc2nnsc2Cl)cc1`, the AC50 under setting [1] is 2.82 µM [falling, partial curve, poor fit]. The same measure, in the same setting: under `O=C(NCCSc1ccccc1)c1ccccc1` stands 1.46 µM [rising, full curve]; under `CN(C)S(=O)(=O)c1ccc(N2CCCC2)c(C(=O)NNC(=O)COc2ccccc2Cl)c1`, 0.651 µM [rising, full curve, poor fit]; under `COc1cccc(C(=O)CC(=O)C(=O)Nc2cc(OC)ccc2OC)c1`, 0.501 µM [rising, full curve, poor fit].

With `Nc1nc(SCc2ccc(Cl)cc2Cl)ns1`, the AC50 under setting [1] is 25.9 µM [rising, single point]. In the case of `O=C(O)c1cnn(-c2nc(-c3ccc(Cl)c(Cl)c3)cs2)c1C(F)(F)F`, the half-maximal activity concentration (AC50) under setting [1] was 22.4 µM [falling, single point]. For `CCOc1ccc(C(=O)OCC(=O)Nc2ccc(SC(F)F)cc2)cc1OCC`, the AC50 under setting [1] is 25.9 µM [rising, single point]. Same read-out and setting: under `CC(=O)OCC(=O)[C@@]12OC3(CCCC3)O[C@@H]1C[C@H]1[C@@H]3CCC4=CC(=O)C=C[C@]4(C)[C@@]3(F)[C@@H](O)C[C@@]12C` stands 16.4 µM [rising, partial curve, poor fit]; under `COc1ccc(S(=O)(=O)Nc2ccc3c(c2)n(C)c(=O)n3C)cc1OC`, 10 µM [rising, partial curve]. `CCOc1ccc(C(NC(=O)c2ccco2)c2ccc(OC)c(OC)c2)cc1` (stereo not given): under setting [1], the AC50 is 0.164 µM [falling, full curve, poor fit]. Take `CCOc1cc(N2CCOCC2)c(OCC)cc1NC(=O)COC(=O)c1ccccc1C`: the AC50 under setting [1] is 6.51 µM [rising, single point]. On to `O=C(CCCN1C(=O)/C(=C/c2ccccc2)SC1=S)NCCCn1ccnc1`, for which the AC50 under setting [1] was 3.16 µM [falling, full curve]. For `O=C(O)c1cc(-c2ccc(/C=N/NC(=S)Nc3ccccc3)o2)ccc1Cl`, under setting [1], the AC50 is 22.4 µM [falling, single point]. Still for that read-out and setting: then `COc1cccc(NC(=O)CN2CCSc3ccccc32)c1`, with 11.2 µM [falling, partial curve].

On to `C=C1C(=O)[C@@]23[C@H](O)C[C@@H]4C(C)(C)CC[C@H](O)[C@@]4(C)[C@@H]2CC[C@@H]1[C@H]3O`, for which the AC50 is 2.06 µM [falling, full curve] under setting [1] and 5.17 µM [rising, partial curve, poor fit] under setting [2].

`O=C(Nc1ccccc1Br)C1CCCN1S(=O)(=O)c1cccc2nsnc12` (stereo not given): the AC50 under setting [1] was 0.562 µM [rising, full curve, poor fit]. In the case of `CCO[C@@H]1OC(C(=O)Nc2ccccc2)=C[C@H](c2ccccc2)[C@H]1CCCO`, the AC50 under setting [1] is 35.5 µM [rising, single point]. With `Cc1cc(C)n(C(=O)CNc2ccc(C)c(C)c2)n1`, the half-maximal activity concentration (AC50) under setting [1] was 23.1 µM [falling, single point].

With `COc1ccc2nc(N3CCC(C)CC3)c(C#N)cc2c1`, the AC50 under setting [1] was 4.61 µM [rising, full curve, poor fit]. On the same count and under the same terms, then `COc1ccc(OC)c(-c2c3cc(O)c(=O)cc-3oc3cc(O)c(O)cc23)c1`, with 29.1 µM [rising, single point]; and `O=S(=O)(NCCc1csc(-c2cccnc2)n1)c1cccs1`, with 6.51 µM [rising, single point].

For `O=C1/C(=C/c2cccnc2)SC(=S)N1c1ccc(F)cc1`, under setting [1], the AC50 was 5.8 µM [rising, full curve, poor fit]. On the same count and under the same terms, then `CN(C)CCOC(=O)CC12CC3CC(C1)CC(CC(=O)OCCN(C)C)(C3)C2`, with 35.5 µM [falling, single point]; and `Cc1ccc(S(=O)(=O)NC2=C(N3CCN(Cc4ccccc4)CC3)C(=O)c3ccccc3C2=O)cc1`, with 2.06 µM [rising, full curve, poor fit]. Same read-out and setting: then `Cc1cc(=O)oc2ccc(OCC(=O)N3CCC(C)CC3)cc12`, with 23.1 µM [rising, single point]; and `Cn1nnc2c[n+](CC(=O)c3ccc4ccccc4c3)cc(Br)c21`, with 5.62 µM [rising, single point]. Same read-out and setting: under `Clc1cccc(-c2ccc3ncnc(NCc4ccc5c(c4)OCO5)c3c2)c1` stands 29.1 µM [falling, single point]. With `COC(=O)c1c(C)nc(C)c(C(=O)OC)c1-c1ccc(OC)c(OC)c1`, the AC50 under setting [2] is 11.2 µM [falling, partial curve, poor fit]. On to `S=C(Nc1ccccc1)Nc1ccc(Cl)cn1`, for which, under setting [1], the AC50 was 1.12 µM [rising, full curve, poor fit]. Still for that read-out and setting: under `O=C(CN1C(=O)/C(=C\c2ccccc2Br)Oc2ccccc21)NCCCN1CCOCC1` stands 17.8 µM [falling, single point]; under `O=C(Nc1ccon1)c1csc2c1CCCC2`, 7.31 µM [falling, partial curve, poor fit]; under `C#CCn1c(=NC(=O)c2cccs2)sc2cccc(OC)c21`, 4.11 µM [falling, partial curve, poor fit].

As to `O=[N+]([O-])c1ccc(C(c2sc3nc(-c4ccco4)nn3c2O)N2CCN(c3cccc(Cl)c3)CC2)cc1` (stereo not given), under setting [1], the AC50 was 35.5 µM [falling, single point]. For the compound `CC1(C)CC(=O)C2=C(C1)NC(=O)NC2c1ccc(Cl)cc1` (stereo not given), the AC50 under setting [1] was 25.1 µM [falling, single point]. Consider `CC(C)(C)c1nc(CN2CCOCC2)cc(CN2CCOCC2)c1O`, for which, under setting [1], the AC50 was 29.1 µM [rising, single point].

For the compound `Cc1ccc(S(=O)(=O)N2CCOCC2)cc1C(=O)N1CCN(S(=O)(=O)c2cccs2)CC1`, the AC50 under setting [1] is 0.112 µM [falling, full curve, poor fit].
